This note sets out measurements from US20040081972A1 (priority 2000, published 2004).

Series [1] in a line: general procedure: Fmoc solid-phase peptide synthesis; Rink amide MBHA resin. As to conditions: whole synthesis, scale 16.5 umol.
Series [2] is described as follows: general procedure: Fmoc solid-phase peptide synthesis; NovaSyn TGR resin. Conditions: whole synthesis.
The nature of series [3]: general procedure: Fmoc solid-phase peptide synthesis; H-Cys(Trt)-2-ClTrt resin. Conditions: whole synthesis, scale 34.2 umol.

On to H-CLIGEVSSGSGETFSYPDFLRMML-NH2, for which, in series [1], the crude mass stood at 48.9 mg and the isolated mass is on record as 11.6.mg.

In series [2] (scale 12.6 umol), “H-Leu-Ser-Pro-His-Thr-Lys-Leu-Ser-Tyr-Arg-Glu-Glu-Val-Phe-Leu-Arg-Leu-Ser-Lys-Ser-Glu-Gly-Leu-Met-Glu-Ile-LYB-Leu-Met-Glu-Asp-Leu-Met-val-Phe-Ser-Arg-Thr-Gly-NH2 (LSPHTKLSYREEVFLRLSKSEGLMEIKLMEDLMVFSRTG; C-terminal amide; non-natural residues LYB, D-Val; variant of peptide 2 (SEQ ID NO37))” yielded a crude mass of 69.6 mg and an isolated mass of 13.2 mg.

Take H-LIREVSSGSEETFSYSDFLRMML-NH2: in series [2] (scale 12.6 umol), the crude mass is recorded as 38.3 mg and the isolated mass stood at 11.7 mg.

Turning to “H-Met-Met-Glu-Lys-Leu-Gly-val-Pro-Lys-Thr-His-Leu-Glu-Met-Lys-Cys-OH”, in series [3], the crude mass is recorded as 38.2 mg and the isolated mass is listed as 27.5 mg.

Regarding “H-MLEKLGVPKTHLELKRLIREVSSGSEETFSYSDFLRMML-NH2”, in series [2] (scale 12.6 umol), the crude mass came to 66.7 mg and the isolated mass came out at 14.4 mg.

In series [2] (scale 12.5 umol), “H-CMLEKLGVPKTHLELKKLIGEVSSGSGETFSYPDFLRMML-NH2” had a crude mass of 54.2 mg and an isolated mass of 8.7 mg.

“H-Val-Thr-Pro-His-Thr-Lys-Leu-Val-Tyr-Ser-Glu-Ser-Val-Ile-Met-Asn-Met-Ser-Lys-Gly-Glu-Gly-Leu-Met-Glu-Ile-Lys-Leu-Met-Asp-Asp-Met-Met-Thr-Phe-Arg-Lys-val-Gly-NH2 (VTPHTKLVYSESVIMNMSKGEGLMEIKLMDDMMTFRKVG; C-terminal amide; D-Val; variant of peptide 3 (SEQ ID NO38))”: in series [2] (scale 12.6 umol), the crude mass was determined as 60.3 mg and the isolated mass is 8.7 mg.

For the substance “H-MMEKLGVPKTHLEMKKMISEVTGGVSDTISYRDFVNMML-NH2”, in series [2] (scale 12.6 umol), the crude mass is given as 55.2 mg and the isolated mass turned out to be 12.0 mg.

In series [2] (scale 12.6 umol), “H-LSPHTKLSYGEGVFLRLSKSEGLMEIKLMEDLMVFPKTG-NH2” gave a crude mass of 59.3 mg and an isolated mass of 10.3 mg.

In series [2] (scale 12.6 umol), “H-CMLEKLGVPKTHLELKKLIREVSSGSEETFSYSDFLRMML-NH2” showed a crude mass of 58.6 mg and an isolated mass of 5.9 mg.
